Data on one sequence can be found in patent publication US20180348220.

Construct, isoform or probe ends are uncertain for at least one entry. Results from cells or extracts need not show a direct contact.

This data set concerns MCF10A non-cancer cell surface (Homo sapiens). Nature of the data set: flow cytometry. Particulars: non-cancer cells, protein on the cell surface, label: Alexa488, single-stranded DNA.

For GGTGGTGGTGGTTGTGGTGGTGGTGG [AS1411], the binding result is listed as “binds”.
